Laboratory results from paper doi:10.1101/2021.02.23.432418.
No constants are given. Whether binding was seen depends on the method and setting. In cells and extracts the contact can be indirect. Tags and fused reporters may be left off the sequences shown.

Target: T1, porcine Gasdermin D residues 194-488 (pGSDMD-194-488) (porcine (cDNA of IPEC-J2 cells)) (UniProt F1SEV7)
T1 sequence: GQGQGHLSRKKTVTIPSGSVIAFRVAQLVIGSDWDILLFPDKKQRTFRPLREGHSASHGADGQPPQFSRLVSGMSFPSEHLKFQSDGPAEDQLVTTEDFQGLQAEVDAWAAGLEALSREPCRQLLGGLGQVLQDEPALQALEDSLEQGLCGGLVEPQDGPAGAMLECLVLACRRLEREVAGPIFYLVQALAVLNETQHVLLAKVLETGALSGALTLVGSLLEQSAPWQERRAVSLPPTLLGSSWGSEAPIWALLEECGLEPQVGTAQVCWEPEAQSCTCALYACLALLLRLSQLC
Assay: co-IP

- binding: no binding
B1: porcine caspase-1 (HA-caspase-1) (enzyme, UniProt Q9N2I1 1-404)
chain: MADKVLKEKRRLFVRSVAMGTINGLLDELLETRVLNQEEVEIVRGENATVMDKARALIDSVIRKGPQACQICINHICGDDPHLAGVLELSTGSQSGKCLTVQESQAVVPPFPAPQTVQDNPVKPASSEPRGSLKLCPPDIAQRLWKEKSAEIYPIMGKSIRTRLALIICNTEFENLPRRDGADVDIRDMKILLEDLGYSVDVRENLTASDMAIELKAFAARPEHKSSDSTFLVLMSHGIQAGICGKKYSEEVPDVLEVNTVFQILNTLNCPSLKDKPKVIIIQACRGEKQGVVWIKDSVGPSGNSSLLAAEDFEYDAIKKAHIEKDFIAFCSSTPDNVSWRHPLLGSLFIIKLIKILQEHAWSCGLEEIFRKVRFSFELADGRAQMPTAERVTLTRSFYLFPGH
